{"source": "patent US9598364B2", "about": "“Indolyl or indolinyl hydroxamate compounds” (Taipei Medical University, priority 2010, dated 2017)", "test_system": "Kasumi-1", "assay": "MTT cell viability assay, Kasumi-1", "type": "cell-based", "settings": "Kasumi-1 leukemia cells, 48 or 72 hr", "from_the_text": "Various concentrations for the test compound were examined.", "data": [{"smiles": "O=C(CCCCCCC(=O)Nc1ccccc1)NO", "note": "[SAHA, reference compound]", "values": [{"measurement": "GI50", "result": 292, "unit": "nM"}]}]}
